The results in this text go back to patent US5408036A (The Scripps Research Institute, priority 1993, dated 1995).

The nature of this data set: general procedure: Boc solid-phase peptide synthesis; 4-methylbenzhydryl amine resin; BOP reagent, DIEA. The settings on record: whole synthesis, analytical RP HPLC.

Regarding “-Gly-Glu-Leu-Ala-Glu-Gln-Lys-Leu-Glu-Gln-Ala-Leu-Gln-Lys-Leu-Ala (GELAEQKLEQALQKLA; N-terminal 5-carboxyl-2,2'-bipyridine ligand)”, the “crude HPLC purity” value was 90% pure and the “final HPLC purity” value is reported as more than 99% pure.
